Patent US20020198143A1 (Human Genome Sciences, published 2002)
No constants are given. Whether binding was seen depends on the method and setting. Some results given as binding are weak or reduced against the parent protein; the word gives no strength.

Target: T1, B7-H2 expressed on transfected 293 cells (UniProt O75144)
T1 sequence (looked up): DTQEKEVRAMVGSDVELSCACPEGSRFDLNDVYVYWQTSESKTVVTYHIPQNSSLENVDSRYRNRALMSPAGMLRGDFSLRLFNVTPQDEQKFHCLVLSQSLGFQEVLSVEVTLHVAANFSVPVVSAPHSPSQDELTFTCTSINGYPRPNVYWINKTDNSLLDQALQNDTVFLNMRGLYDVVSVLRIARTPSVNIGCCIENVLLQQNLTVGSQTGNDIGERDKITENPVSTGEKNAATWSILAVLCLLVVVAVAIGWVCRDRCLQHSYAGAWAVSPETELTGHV
Assay: FACS on 293 cells transfected with B7-H2

B1: ICOSIg (Fc fusion, UniProt Q9Y6W8 21-140, looked up)
chain: EINGSANYEMFIFHNGGVQILCKYPDIVQQFKMQLLKGGQILCDLTKTKGSGNTVSIKSLKFCHSQLSNNSVSFFLYNLDHSHANYYFCNLSIFDPPPFKVTLTGGYLHIYESQLCCQLK
notes: extracellular domain; not shown: Fc constant region of mouse IgG2a, inferred from 'similar methods'
In the case of B1, the binding is reported as “binds”.
